Test results: the supplement of paper PMC4604168 (melanoma cell lines)
Some of the results follow. Many values rest on one well or one pass, so single values are uncertain.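 Cells were imaged in 1,536-well plates, and nuclei stained with an antibody against cleaved PARP were counted against all DNA-stained nuclei to give the apoptosis fraction. Screening doses were chosen to leave most cells alive, and resting and induced cleaved-PARP levels differ strongly between cell lines.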

Legend:
Test in all cases: cleaved PARP positive nuclei fraction relative to DMSO control; melanoma cells; higher = more apoptosis
Settings in all cases: library dose: low library concentration; 72 h
501Mel = tested on: 501Mel
A101D = tested on: A101D
A2058 = tested on: A2058
A375 = tested on: A375
C32 = tested on: C32
CBRC008 = tested on: CBRC008 (line from a melanoma biopsy)
CBRC013 = tested on: CBRC013 (line from a melanoma biopsy)
CBRC014 = tested on: CBRC014 (line from a melanoma biopsy)
CBRC016 = tested on: CBRC016 (line from a melanoma biopsy)
CBRC017 = tested on: CBRC017 (line from a melanoma biopsy)
COLO792 = tested on: COLO792
COLO800 = tested on: COLO800
COLO829 = tested on: COLO829
G361 = tested on: G361
IPC-298 = tested on: IPC-298
IST-MEL1 = tested on: IST-MEL1
LB2518-MEL = tested on: LB2518-MEL
LOXIMVI = tested on: LOXIMVI
MEL-HO = tested on: MEL-HO

Row | Structure (SMILES) | cleaved PARP positive nuclei fraction (501Mel) [%] | cleaved PARP positive nuclei fraction (A101D) [%] | cleaved PARP positive nuclei fraction (A2058) [%] | cleaved PARP positive nuclei fraction (A375) [%] | cleaved PARP positive nuclei fraction (C32) [%] | cleaved PARP positive nuclei fraction (CBRC008) [%] | cleaved PARP positive nuclei fraction (CBRC013) [%] | cleaved PARP positive nuclei fraction (CBRC014) [%] | cleaved PARP positive nuclei fraction (CBRC016) [%] | cleaved PARP positive nuclei fraction (CBRC017) [%] | cleaved PARP positive nuclei fraction (COLO792) [%] | cleaved PARP positive nuclei fraction (COLO800) [%] | cleaved PARP positive nuclei fraction (COLO829) [%] | cleaved PARP positive nuclei fraction (G361) [%] | cleaved PARP positive nuclei fraction (IPC-298) [%] | cleaved PARP positive nuclei fraction (IST-MEL1) [%] | cleaved PARP positive nuclei fraction (LB2518-MEL) [%] | cleaved PARP positive nuclei fraction (LOXIMVI) [%] | cleaved PARP positive nuclei fraction (MEL-HO) [%]
1 | NC(=O)c1ccc(N(C(N)=O)c2c(F)cccc2F)nc1-c1ccc(F)cc1F + O=C(Nc1cccc(Cl)c1)Nc1ncc(CCNc2ncnc3ccsc23)s1 [SNS314] (first compound 0.4 µM, partner dose 0.0008 µM) | 109 | 247 | 51 | 105 | 125 | 52.1 | 145 | 78.8 | 136 | 102 | 67.2 | 101 | 120 | 126 | 62.6 | 98.1 | 48.3 | 74.7 | 46.9
2 | C[C@]1(O)C[C@@H](c2nc(-c3ccc4ccc(-c5ccccc5)nc4c3)c3c(N)nccn32)C1 + OCCn1cc(-c2cnc3nnn(Cc4ccc5ncccc5c4)c3n2)cn1 [PF04217903] (first compound 0.4 µM, partner dose 1 µM) | 182 | 87.2 | 98.7 | 173 | 101 | 131 | 70 | 494 | 97.2 | 79 | 188 | 85.1 | 115 | 103 | 48.9 | 101 | 104 | 53.5 | 103
3 | NC1(c2ccc(-c3nc4ccn5c(=O)[nH]nc5c4cc3-c3ccccc3)cc2)CCC1 + NCC(=O)Nc1ccc(-n2nc(C(F)(F)F)cc2-c2ccc3c(ccc4ccccc43)c2)cc1 [OSU03012] (first compound 0.4 µM, partner dose 1 µM) | 549 | 128 | 169 | 3710 | 60.9 | 94.8 | 97.1 | 71.9 | 52.4 | 130 | 134 | 142 | 165 | 64.3 | 107 | 102 | 51 | 65.5 | 170
4 | CC(=O)O[C@@]12CO[C@@H]1C[C@H](O)[C@@]1(C)C(=O)[C@H](O)C3=C(C)[C@@H](OC(=O)[C@H](O)[C@@H](NC(=O)OC(C)(C)C)c4ccccc4)C[C@@](O)([C@@H](OC(=O)c4ccccc4)[C@H]21)C3(C)C [Docetaxel] + NC(=O)Nc1cc(-c2cccc(F)c2)sc1C(=O)N[C@H]1CCCNC1 [AZD7762] (first compound 0.0001 µM, partner dose 0.02 µM) | 133 | 98.4 | 6130 | 10900 | 376 | 241 | 132 | 129 | 283 | 124 | 590 | 298 | 253 | 424 | 210 | 205 | 350 | 101 | 145
5 | C[C@@H](N)c1ccc(C(=O)Nc2ccnc3[nH]ccc23)cc1 + C=CCn1c(=O)c2cnc(Nc3ccc(N4CCN(C)CC4)cc3)nc2n1-c1cccc(C(C)(C)O)n1 [MK1775] (first compound 0.4 µM, partner dose 0.02 µM) | 78.4 | 102 | 97.5 | 59.9 | 77 | 156 | 122 | 108 | 196 | 101 | 150 | 84.9 | 130 | 129 | 22.7 | 102 | 68.7 | 481 | 171
6 | CC1(C)CCC(c2ccc(Cl)cc2)=C(CN2CCN(c3ccc(C(=O)NS(=O)(=O)c4ccc(N[C@H](CCN5CCOCC5)CSc5ccccc5)c(S(=O)(=O)C(F)(F)F)c4)cc3)CC2)C1 + NCC(=O)Nc1ccc(-n2nc(C(F)(F)F)cc2-c2ccc3c(ccc4ccccc43)c2)cc1 [OSU03012] (first compound 0.4 µM, partner dose 1 µM) | 2020 | 149 | 143 | 6080 | 445 | 708 | 200 | 1400 | 1040 | 494 | 246 | 129 | 140 | 115 | 535 | 203 | 78.9 | 291 | 104
7 | COc1ccc(C2=N[C@@H](c3ccc(Cl)cc3)[C@@H](c3ccc(Cl)cc3)N2C(=O)N2CCNC(=O)C2)c(OC(C)C)c1 [Nutlin-3] + CC1(C)NC(=O)N(c2ccc([N+](=O)[O-])c(C(F)(F)F)c2)C1=O [nilutamide] (first compound 0.1 µM, partner dose 1 µM) | 90.7 | 102 | 130 | 39 | 123 | 270 | 109 | 82.7 | 28.9 | 101 | 103 | 32.1 | 78 | 111 | 91.5 | 101 | 220 | 34.8 | 35.9
8 | CC(=O)O[C@@]12CO[C@@H]1C[C@H](O)[C@@]1(C)C(=O)[C@H](O)C3=C(C)[C@@H](OC(=O)[C@H](O)[C@@H](NC(=O)OC(C)(C)C)c4ccccc4)C[C@@](O)([C@@H](OC(=O)c4ccccc4)[C@H]21)C3(C)C [Docetaxel] + CO[C@@H]1[C@H](N(C)C(=O)c2ccccc2)C[C@H]2O[C@]1(C)n1c3ccccc3c3c4c(c5c6ccccc6n2c5c31)C(=O)NC4 [Midostaurin] (first compound 0.0001 µM, partner dose 0.08 µM) | 424 | 164 | 8600 | 8770 | 263 | 308 | 96.9 | 181 | 205 | 140 | 765 | 351 | 170 | 475 | 197 | 202 | 116 | 310 | 109
9 | C[C@@H](N)c1ccc(C(=O)Nc2ccnc3[nH]ccc23)cc1 + O=C(CCCCCCC(=O)Nc1ccccc1)NO [vorinostat] (first compound 0.4 µM, partner dose 0.08 µM) | 40.1 | 80.2 | 159 | 30.5 | 105 | 52.4 | 108 | 96.2 | 208 | 99.2 | 192 | 58.1 | 123 | 75.8 | 45.1 | 68.9 | 22.5 | 398 | 185
10 | CS(=O)(=O)c1ccc(C(=O)Nc2ccc(Cl)c(-c3ccccn3)c2)c(Cl)c1 [vismodegib] + COc1cc(Nc2ncc(F)c(Nc3ccc4c(n3)NC(=O)C(C)(C)O4)n2)cc(OC)c1OC [Tamatinib] (first compound 1 µM, partner dose 0.4 µM) | 92.6 | 96.3 | 20 | 120 | 134 | 127 | 159 | 95.2 | 32.4 | 102 | 39 | 117 | 103 | 120 | 106 | 138 | 107 | 100 | 35.2
11 | CC1(C)CCC(c2ccc(Cl)cc2)=C(CN2CCN(c3ccc(C(=O)NS(=O)(=O)c4ccc(N[C@H](CCN5CCOCC5)CSc5ccccc5)c(S(=O)(=O)C(F)(F)F)c4)cc3)CC2)C1 + CC1(C)NC(=O)N(c2ccc([N+](=O)[O-])c(C(F)(F)F)c2)C1=O [nilutamide] (first compound 0.4 µM, partner dose 1 µM) | 85 | 158 | 274 | 126 | 386 | 369 | 61.8 | 347 | 318 | 247 | 316 | 143 | 61.7 | 159 | 194 | 52.8 | 85.4 | 125 | 174
12 | CC(=O)O[C@@]12CO[C@@H]1C[C@H](O)[C@@]1(C)C(=O)[C@H](O)C3=C(C)[C@@H](OC(=O)[C@H](O)[C@@H](NC(=O)OC(C)(C)C)c4ccccc4)C[C@@](O)([C@@H](OC(=O)c4ccccc4)[C@H]21)C3(C)C [Docetaxel] + O=C(Nc1cccc(Cl)c1)Nc1ncc(CCNc2ncnc3ccsc23)s1 [SNS314] (first compound 0.0001 µM, partner dose 0.0008 µM) | 117 | 103 | 4450 | 6250 | 377 | 66.5 | 160 | 128 | 169 | 119 | 178 | 354 | 223 | 257 | 540 | 101 | 81.3 | 86.1 | 108
13 | CN(c1ncccc1CNc1nc(Nc2ccc3c(c2)CC(=O)N3)ncc1C(F)(F)F)S(C)(=O)=O + CN(C)S(=O)(=O)c1ccc2c(c1)/C(=C/c1cc3c([nH]1)CCCC3)C(=O)N2 [SU6656] (first compound 0.08 µM, partner dose 0.4 µM) | 96.6 | 109 | 123 | 257 | 90.7 | 82.7 | 159 | 102 | 261 | 383 | 122 | 27.3 | 267 | 66.2 | 100 | 105 | 232 | 89.7 | 255
14 | COc1ccc(C2=N[C@@H](c3ccc(Cl)cc3)[C@@H](c3ccc(Cl)cc3)N2C(=O)N2CCNC(=O)C2)c(OC(C)C)c1 [Nutlin-3] + CC(C)(C)c1cnc(CSc2cnc(NC(=O)C3CCNCC3)s2)o1 [SNS-032] (first compound 0.1 µM, partner dose 0.01 µM) | 99.5 | 99.1 | 48.7 | 78.7 | 173 | 166 | 139 | 82.8 | 128 | 96.9 | 73.9 | 179 | 87.9 | 155 | 188 | 90.6 | 104 | 31.6 | 76.3
15 | CN(c1ncccc1CNc1nc(Nc2ccc3c(c2)CC(=O)N3)ncc1C(F)(F)F)S(C)(=O)=O + Cc1cc(N2CCOCC2)cc2[nH]c(-c3c(NC[C@@H](O)c4cccc(Cl)c4)cc[nH]c3=O)nc12 [BMS536924] (first compound 0.08 µM, partner dose 0.2 µM) | 98 | 85.3 | 49.1 | 203 | 150 | 171 | 186 | 181 | 35.1 | 96.8 | 107 | 142 | 118 | 117 | 93.1 | 163 | 87.7 | 139 | 212
16 | Cn1cnc2c(F)c(Nc3ccc(Br)cc3Cl)c(C(=O)NOCCO)cc21 [selumetinib] + C[C@@H]1CCN(C(=O)CC#N)C[C@@H]1N(C)c1ncnc2[nH]ccc12 [CP690550] (first compound 0.015 µM, partner dose 1 µM) | 149 | 265 | 96.4 | 154 | 48.3 | 192 | 128 | 83.5 | 106 | 113 | 99.1 | 38.6 | 71.8 | 139 | 192 | 63.1 | 220 | 77.3 | 99.1

Copied from the list:
Entry for COc1ccc(C2=N[C@@H](c3ccc(Cl)cc3)[C@@H](c3ccc(Cl)cc3)N2C(=O)N2CCNC(=O)C2)c(OC(C)C)c1 [Nutlin-3] + CC1(C)NC(=O)N(c2ccc([N+](=O)[O-])c(C(F)(F)F)c2)C1=O [nilutamide] (first compound 0.1 µM, partner dose 1 µM) under cleaved PARP positive nuclei fraction (IST-MEL1) [%]: 101
Entry for CC(=O)O[C@@]12CO[C@@H]1C[C@H](O)[C@@]1(C)C(=O)[C@H](O)C3=C(C)[C@@H](OC(=O)[C@H](O)[C@@H](NC(=O)OC(C)(C)C)c4ccccc4)C[C@@](O)([C@@H](OC(=O)c4ccccc4)[C@H]21)C3(C)C [Docetaxel] + CO[C@@H]1[C@H](N(C)C(=O)c2ccccc2)C[C@H]2O[C@]1(C)n1c3ccccc3c3c4c(c5c6ccccc6n2c5c31)C(=O)NC4 [Midostaurin] (first compound 0.0001 µM, partner dose 0.08 µM) under cleaved PARP positive nuclei fraction (LOXIMVI) [%]: 310
